Consider two molecules from PubChem BioAssay AID256 (DTP/NCI, 2004).

The list does not hold the whole screen: it gathers some chemical classes. Not every dose and run of a compound is shown. T/C is the treated group as % of the vehicle group. Where survival is the endpoint, the PubChem record calls one and a half times the control and up active, and a quarter to a half above the control has no call in these data; cut-offs in other NCI protocols can differ. Schedules are NCI's codes, read here as Q, the interval in days (D) or hours (H), X, the number of doses.

The test system of the test is CD2F1 mice, L1210 leukemia ip, survival T/C. The test is described as follows: NCI In Vivo Anticancer Drug Screen. Data for tumor model L1210 Leukemia (intraperitoneal) in CD2F1 (CDF1) mice. The conditions noted are these: T/C endpoint: mean survival time, vehicle: saline, higher T/C = longer survival. The method, boiled down: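 In this screen, transplantable tumors were grown in mice given either the compound or its vehicle. Results were expressed as the treated measurement relative to the control measurement.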

Regarding `CC1(C)CN1P(=O)(Nc1ncccn1)N1CC1(C)C` (stereo unspecified), the T/C is 102 % of control (dose: 12.5 mg/kg/injection, schedule: Q01DX009 (ip)); 108 % of control (dose: 25.0 mg/kg/injection, schedule: Q01DX009 (ip)); 128 % of control (dose: 50.0 mg/kg/injection, schedule: Q01DX001 (ip)); 128 % of control (dose: 50.0 mg/kg/injection, schedule: Q01DX009 (ip)); 122 % of control (dose: 100.0 mg/kg/injection, schedule: Q01DX001 (ip), evaluated on day 30); 125 % of control (dose: 100.0 mg/kg/injection, schedule: Q01DX001 (ip), run until all animals had died). Moreover, the T/C reads like this: (dose: 100.0 mg/kg/injection, schedule: Q01DX009 (ip)) 150 % of control; (dose: 200.0 mg/kg/injection, schedule: Q01DX001 (ip), evaluated on day 30) 141 % of control; (dose: 200.0 mg/kg/injection, schedule: Q01DX001 (ip), run until all animals had died) 140 % of control; (dose: 200.0 mg/kg/injection, schedule: Q01DX009 (ip)) 271 % of control; (dose: 400.0 mg/kg/injection, schedule: Q01DX001 (ip), evaluated on day 30) 150 % of control; (dose: 400.0 mg/kg/injection, schedule: Q01DX001 (ip), run until all animals had died) 130 % of control. Also, for the setting “dose: 400.0 mg/kg/injection, schedule: Q01DX009 (ip)”, the T/C was 90 % of control.

With `O=[N+]([O-])c1ccc(N/N=C(/C=N/Nc2ccc([N+](=O)[O-])cc2[N+](=O)[O-])C(O)C(O)C(O)CO)c([N+](=O)[O-])c1` (stereo unspecified), the T/C is 103 % of control (dose: 75.0 mg/kg/injection, schedule: Q01DX001 (ip)); 94 % of control (dose: 150.0 mg/kg/injection, schedule: Q01DX001 (ip)); 97 % of control (dose: 300.0 mg/kg/injection, schedule: Q01DX001 (ip)).
